The list shows a part of the results.

Amino acid sequences for entries named in this document (tags omitted).
UniProt Q0JBA9, entry or part of it: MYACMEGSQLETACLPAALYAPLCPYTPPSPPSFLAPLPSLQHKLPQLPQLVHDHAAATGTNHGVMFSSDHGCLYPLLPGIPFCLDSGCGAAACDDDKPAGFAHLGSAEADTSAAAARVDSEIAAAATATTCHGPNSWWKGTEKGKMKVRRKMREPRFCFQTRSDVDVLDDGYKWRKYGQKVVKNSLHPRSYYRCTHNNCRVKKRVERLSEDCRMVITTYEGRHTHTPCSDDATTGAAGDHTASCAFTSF

The test has as its target OsWRKY34 (Oryza sativa, UniProt Q0JBA9 1-250). Description: protein-binding microarray (RPBM); PBS, 2% BSA, 51.3 ng/ul salmon testes DNA, 50 uM zinc acetate, 200 nM TF, 25 C, 1 h; high values mean tight binding. The settings on record: protein: recombinant; tags: N-terminal polyhistidine and DsRed monomer fusion (pET32a); label: CyDye5-dUTP incorporated in the synthesized complementary strand; 3' TTTTT single-stranded linker to array surface; dsDNA, one strand shown. Put shortly: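 The binding signal is fluorescence intensity per feature, in arbitrary units, read on an Axon 4000B scanner. Polyhistidine- and DsRed-tagged transcription factors (N-terminal fusions) from E. coli BL21-CodonPlus were purified on Ni–NTA and applied at 200 nM for 1 h at 25 °C to a double-stranded, BSA-blocked custom Agilent array in buffer with 50 µM zinc acetate.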
For the sequence “GAACCACCTTTTATCACTGTGTATTCACAACCTATAAAAACGGAGTCACCTAGTGCAG”, the binding signal is 9430 fluorescence intensity (a.u.).

Turning to “TAGCAACCATTAGCCATGTGTCCTTGATTTTTCTATTATACGGAGTCACCTAGTGCAG”, the binding signal is 9380 fluorescence intensity (a.u.).

With “TATGCAGCTAATTAATAAGTCGATCGCTGCATATCCCTTTCGGAGTCACCTAGTGCAG”, the binding signal is 8600 fluorescence intensity (a.u.).

Take “CCATTCCTCTTCTCTCTCTCTCGCTCGCGCTGTACTAACTCGGAGTCACCTAGTGCAG”: the binding signal is 9360 fluorescence intensity (a.u.).

As for “AGTCGTTTACTAGTCCATTTCACCATCCCTGGGCCACATCCGGAGTCACCTAGTGCAG”, the binding signal is 8900 fluorescence intensity (a.u.).

Consider “CGAGCCCAGCAACTCCGCTATTATGCCTACCGTCCCGCGCCGGAGTCACCTAGTGCAG”, for which the binding signal is 8670 fluorescence intensity (a.u.).

With “GCTCCCATCTGGATGCCGACCCCTGCACACAAGCCATCCTCGGAGTCACCTAGTGCAG”, the binding signal is 8140 fluorescence intensity (a.u.).

Turning to “GCATATTATGTGCTTCCTCGTCAGGCCTCTGTAATGATCACGGAGTCACCTAGTGCAG”, the binding signal is 8780 fluorescence intensity (a.u.).

Take “GAACCTTCACGTGCCGCGCGGCCCAGCCATTGCCCGTGCCCGGAGTCACCTAGTGCAG”: the binding signal was 9000 fluorescence intensity (a.u.).

Take “ACCAGTCACCACCACTTGTCCGGTCAACTCTCCAGTGACCCGGAGTCACCTAGTGCAG”: the binding signal was 9350 fluorescence intensity (a.u.).

As to “TTCGCATGGCCCCGTTTCCTGATTGCTTTTCTATTTTTCCCGGAGTCACCTAGTGCAG”, the binding signal is 8440 fluorescence intensity (a.u.).

As for “AGTGTCGTCACACTGCCGTTTTTACACACTCATCATACATCGGAGTCACCTAGTGCAG”, the binding signal is 9400 fluorescence intensity (a.u.).

In the case of “TGTGATGTATTTGATTTATGATGTATTTATTTGTGTGTATCGGAGTCACCTAGTGCAG”, the binding signal was 8360 fluorescence intensity (a.u.).

In the case of “ACTTATCATGTTGCTCTCTCGAGTCGCCGTCGTAGACTGACGGAGTCACCTAGTGCAG”, the binding signal was 11200 fluorescence intensity (a.u.).

Turning to “CGTTTTCTCCGCTCTCTACTCTTCTCTTTCTCCTCTCTCGCGGAGTCACCTAGTGCAG”, the binding signal was 12000 fluorescence intensity (a.u.).

On to “TTTTTCAGTGCCTAGGTGGATCCTTGTTATCTCCAGACTACGGAGTCACCTAGTGCAG”, for which the binding signal was 8080 fluorescence intensity (a.u.).

With “CCGCCTCGTTGGAGGTCTGTGGCGTGGGGTGGTTGATCTCCGGAGTCACCTAGTGCAG”, the binding signal was 8140 fluorescence intensity (a.u.).

“TGCACACAGGCCCTCACGTGTACACACGTGCACACCAACTCGGAGTCACCTAGTGCAG”: the binding signal was 8640 fluorescence intensity (a.u.).

As to “GTCGCCGGCTTCGTCTTCGCCTATGTAGCGTGAGATCCTCCGGAGTCACCTAGTGCAG”, the binding signal is 8940 fluorescence intensity (a.u.).

As for “ACTTCACCTGCAGATACATACACCCACAGTTTCTGACTTCCGGAGTCACCTAGTGCAG”, the binding signal was 8680 fluorescence intensity (a.u.).

Take “ACTCTTATTATATATCTTGCTGCCTCTGTTTGATTTACATCGGAGTCACCTAGTGCAG”: the binding signal is 9060 fluorescence intensity (a.u.).

Turning to “ATGTGTGATATTAAAATTTAAGAGGGGAGTGGGGTGGTAACGGAGTCACCTAGTGCAG”, the binding signal was 8350 fluorescence intensity (a.u.).

In the case of “GGTAATAGGTCAGGGTTGTGCAGGTGCATGCTCTTGTTGACGGAGTCACCTAGTGCAG”, the binding signal is 8192 fluorescence intensity (a.u.).

For the sequence “ACATCTTACAATTAACACTACTGTCTATGTCTCAATTCATCGGAGTCACCTAGTGCAG”, the binding signal was 9890 fluorescence intensity (a.u.).

Turning to “TATACGACGCTAACGCTGTTGACTTTTTACATACTACTCACGGAGTCACCTAGTGCAG”, the binding signal was 14700 fluorescence intensity (a.u.).

In the case of “CACCTCTCTCGTTTTCCGCGCACACGCTTTTCAAACTATTCGGAGTCACCTAGTGCAG”, the binding signal is 12100 fluorescence intensity (a.u.).

For the sequence “CACAAGTACAAACAACTGCTAGCGTGGATATGTCTCACTACGGAGTCACCTAGTGCAG”, the binding signal is 8090 fluorescence intensity (a.u.).

As to “TCTCCCCTTTCTGCTTCTGCTGCTTCTCCCTTTCCCTCTCCGGAGTCACCTAGTGCAG”, the binding signal is 8200 fluorescence intensity (a.u.).

With “TTGTTTCTTATTTATGTTTGGTGTCTTTTTATATTTATTTCGGAGTCACCTAGTGCAG”, the binding signal was 9720 fluorescence intensity (a.u.).

Regarding “GTTGTCTAGCTGGTTGGTTGGTGTGTCTTCTAAGCCGCGTCGGAGTCACCTAGTGCAG”, the binding signal is 10900 fluorescence intensity (a.u.).

In the case of “TGCACACATGCACACACGCGCGCGCTGCTGCTGCTGCTGACGGAGTCACCTAGTGCAG”, the binding signal is 8160 fluorescence intensity (a.u.).

For “ACCACCACACGCGCGCGCTCGCACAGACACACACACAGCACGGAGTCACCTAGTGCAG”, the binding signal is 8250 fluorescence intensity (a.u.).

With “GTCGCGTGTGCTTCTTTCTCGCCTTCTTCAGTCCGCGGCGCGGAGTCACCTAGTGCAG”, the binding signal was 9820 fluorescence intensity (a.u.).

Consider “CCGATAGTATGCCAACTGATGCCATGCCACTGCTGTTGACCGGAGTCACCTAGTGCAG”, for which the binding signal is 11100 fluorescence intensity (a.u.).

As to “ACTAATTCACTATTTCGGTCAAACTCCTACCGCTAGATATCGGAGTCACCTAGTGCAG”, the binding signal was 8640 fluorescence intensity (a.u.).

Take “CGCCGCTGCCCGCATCATCACCACCTCACCTCACCTCAGCCGGAGTCACCTAGTGCAG”: the binding signal is 8160 fluorescence intensity (a.u.).

In the case of “TGTATTTTTTTGCGAAAGCCCTCTGGTTCACGCGTAATTCCGGAGTCACCTAGTGCAG”, the binding signal is 8840 fluorescence intensity (a.u.).

For “TTTTCTTTCTGTCAGCCCATACTTTTCTGAATATTTACTCCGGAGTCACCTAGTGCAG”, the binding signal is 8590 fluorescence intensity (a.u.).

With “TTTTTTTTGTTCGGCAGAGATGCACACGCAATAATTGTCCCGGAGTCACCTAGTGCAG”, the binding signal was 8640 fluorescence intensity (a.u.).

With “CTACTTCCAGTTCCATTTGTATTCATGTCACCAATATCGTCGGAGTCACCTAGTGCAG”, the binding signal was 8030 fluorescence intensity (a.u.).

On to “ATGCTCATCATGACCGGCATGCTCGACTCTGCCATCCCGACGGAGTCACCTAGTGCAG”, for which the binding signal is 8950 fluorescence intensity (a.u.).

With “GTGTCCATGTCCATGTCGCGGCCATTTATAATCGTAAGCACGGAGTCACCTAGTGCAG”, the binding signal is 9480 fluorescence intensity (a.u.).

The values are drawn from publication PMC7819943, “Rice protein-binding microarrays: a tool to detect cis-acting elements near promoter regions in rice”.
